Paper PMC4811540
Results are given in words; binding and its absence hold for the method and conditions named. In cells and extracts the contact can be indirect. Some binding calls cover weakened binding; strength is not graded here.

Amino acid sequences for entries named in this document (tags omitted). Residues count along the entry.
UniProt P02751, residues 32-2477: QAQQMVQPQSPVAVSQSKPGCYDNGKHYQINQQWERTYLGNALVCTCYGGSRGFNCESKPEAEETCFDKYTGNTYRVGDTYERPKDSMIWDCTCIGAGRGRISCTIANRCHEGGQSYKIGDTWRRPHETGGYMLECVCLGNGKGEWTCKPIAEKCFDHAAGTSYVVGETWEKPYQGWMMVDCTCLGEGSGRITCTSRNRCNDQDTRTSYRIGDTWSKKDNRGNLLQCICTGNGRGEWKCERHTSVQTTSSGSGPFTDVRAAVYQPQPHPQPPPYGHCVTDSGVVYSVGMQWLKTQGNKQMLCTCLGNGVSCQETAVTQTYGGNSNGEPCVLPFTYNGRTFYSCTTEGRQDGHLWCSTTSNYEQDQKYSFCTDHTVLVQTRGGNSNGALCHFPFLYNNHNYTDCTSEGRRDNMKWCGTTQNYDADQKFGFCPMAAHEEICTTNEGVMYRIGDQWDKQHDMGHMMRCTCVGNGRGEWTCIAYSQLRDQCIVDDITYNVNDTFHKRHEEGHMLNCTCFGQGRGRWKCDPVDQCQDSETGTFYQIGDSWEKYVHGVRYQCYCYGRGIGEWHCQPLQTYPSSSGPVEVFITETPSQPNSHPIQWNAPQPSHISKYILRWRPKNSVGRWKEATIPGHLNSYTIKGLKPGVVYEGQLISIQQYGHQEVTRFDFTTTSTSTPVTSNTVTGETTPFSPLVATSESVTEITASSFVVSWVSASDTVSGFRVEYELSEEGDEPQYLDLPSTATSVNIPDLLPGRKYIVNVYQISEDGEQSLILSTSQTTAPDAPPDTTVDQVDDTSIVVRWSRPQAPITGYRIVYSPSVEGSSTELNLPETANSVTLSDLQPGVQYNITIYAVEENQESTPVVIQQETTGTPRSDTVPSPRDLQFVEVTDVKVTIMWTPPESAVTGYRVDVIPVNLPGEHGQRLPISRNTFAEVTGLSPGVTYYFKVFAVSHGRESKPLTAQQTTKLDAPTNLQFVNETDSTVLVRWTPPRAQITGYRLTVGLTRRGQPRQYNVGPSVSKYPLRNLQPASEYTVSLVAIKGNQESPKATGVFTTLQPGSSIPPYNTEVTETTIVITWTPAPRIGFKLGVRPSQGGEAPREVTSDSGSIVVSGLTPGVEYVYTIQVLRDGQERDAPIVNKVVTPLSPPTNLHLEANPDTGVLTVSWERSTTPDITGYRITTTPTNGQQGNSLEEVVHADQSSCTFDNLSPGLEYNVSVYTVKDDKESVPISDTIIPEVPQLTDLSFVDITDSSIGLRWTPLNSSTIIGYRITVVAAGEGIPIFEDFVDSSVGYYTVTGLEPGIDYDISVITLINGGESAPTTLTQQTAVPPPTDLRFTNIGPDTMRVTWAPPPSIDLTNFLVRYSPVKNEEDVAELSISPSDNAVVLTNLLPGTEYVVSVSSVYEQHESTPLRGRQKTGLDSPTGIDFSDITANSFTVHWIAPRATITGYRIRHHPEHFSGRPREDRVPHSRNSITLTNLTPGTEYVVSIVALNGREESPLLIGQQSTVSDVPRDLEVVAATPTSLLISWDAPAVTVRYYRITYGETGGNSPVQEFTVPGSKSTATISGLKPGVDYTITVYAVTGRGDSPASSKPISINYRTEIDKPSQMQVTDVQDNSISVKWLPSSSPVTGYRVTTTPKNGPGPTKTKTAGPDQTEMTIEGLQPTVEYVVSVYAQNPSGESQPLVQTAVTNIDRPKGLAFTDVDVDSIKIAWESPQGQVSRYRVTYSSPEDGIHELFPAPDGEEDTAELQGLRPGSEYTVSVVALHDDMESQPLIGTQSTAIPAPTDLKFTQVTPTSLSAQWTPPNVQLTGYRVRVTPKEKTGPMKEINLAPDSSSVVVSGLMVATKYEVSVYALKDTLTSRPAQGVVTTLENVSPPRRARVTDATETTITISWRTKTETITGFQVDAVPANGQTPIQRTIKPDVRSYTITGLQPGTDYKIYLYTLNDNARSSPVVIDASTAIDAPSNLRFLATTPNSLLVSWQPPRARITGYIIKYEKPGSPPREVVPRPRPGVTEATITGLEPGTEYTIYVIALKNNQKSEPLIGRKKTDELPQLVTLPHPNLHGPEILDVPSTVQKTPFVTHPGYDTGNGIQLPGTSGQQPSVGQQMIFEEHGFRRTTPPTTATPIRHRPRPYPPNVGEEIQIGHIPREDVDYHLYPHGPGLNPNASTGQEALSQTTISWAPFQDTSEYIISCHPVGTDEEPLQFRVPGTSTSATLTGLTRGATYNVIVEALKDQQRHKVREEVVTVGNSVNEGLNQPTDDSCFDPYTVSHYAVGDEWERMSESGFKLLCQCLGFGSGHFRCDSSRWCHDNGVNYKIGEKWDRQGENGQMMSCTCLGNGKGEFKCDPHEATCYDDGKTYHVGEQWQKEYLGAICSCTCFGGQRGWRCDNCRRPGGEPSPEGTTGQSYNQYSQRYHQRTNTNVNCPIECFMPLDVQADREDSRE

How the values were obtained:
Assay in all cases: co-IP; endogenous proteins; Huh7 cells stimulated with SeV (MOI = 1) at the indicated times; Co-IP and immunoblot with the indicated antibodies
[1] = target: T1, Endogenous TAB3 (Huh7 cells) (human (endogenous in Huh7)) (UniProt Q8N5C8)
T1 sequence: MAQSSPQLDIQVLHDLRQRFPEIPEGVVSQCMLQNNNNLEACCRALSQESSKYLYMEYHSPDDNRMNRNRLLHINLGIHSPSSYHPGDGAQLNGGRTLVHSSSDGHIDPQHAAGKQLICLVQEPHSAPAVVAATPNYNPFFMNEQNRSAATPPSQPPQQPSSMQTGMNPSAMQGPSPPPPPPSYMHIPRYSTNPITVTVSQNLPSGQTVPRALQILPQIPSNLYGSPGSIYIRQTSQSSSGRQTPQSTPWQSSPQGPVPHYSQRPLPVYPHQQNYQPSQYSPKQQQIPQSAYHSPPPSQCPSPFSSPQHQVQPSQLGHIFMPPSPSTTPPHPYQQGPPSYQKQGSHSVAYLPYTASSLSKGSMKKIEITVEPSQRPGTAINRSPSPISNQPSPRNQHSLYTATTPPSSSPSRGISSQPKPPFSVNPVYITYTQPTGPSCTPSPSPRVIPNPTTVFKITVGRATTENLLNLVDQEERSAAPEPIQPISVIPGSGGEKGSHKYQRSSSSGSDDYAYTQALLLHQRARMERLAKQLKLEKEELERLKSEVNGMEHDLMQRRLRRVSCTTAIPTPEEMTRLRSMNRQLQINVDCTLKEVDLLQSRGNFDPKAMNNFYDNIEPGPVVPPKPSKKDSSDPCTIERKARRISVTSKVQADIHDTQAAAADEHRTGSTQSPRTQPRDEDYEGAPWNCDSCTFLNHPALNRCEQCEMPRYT

[2] = target: T2, Endogenous TAB1 (Huh7 cells) (human (endogenous in Huh7)) (UniProt Q15750)
T2 sequence: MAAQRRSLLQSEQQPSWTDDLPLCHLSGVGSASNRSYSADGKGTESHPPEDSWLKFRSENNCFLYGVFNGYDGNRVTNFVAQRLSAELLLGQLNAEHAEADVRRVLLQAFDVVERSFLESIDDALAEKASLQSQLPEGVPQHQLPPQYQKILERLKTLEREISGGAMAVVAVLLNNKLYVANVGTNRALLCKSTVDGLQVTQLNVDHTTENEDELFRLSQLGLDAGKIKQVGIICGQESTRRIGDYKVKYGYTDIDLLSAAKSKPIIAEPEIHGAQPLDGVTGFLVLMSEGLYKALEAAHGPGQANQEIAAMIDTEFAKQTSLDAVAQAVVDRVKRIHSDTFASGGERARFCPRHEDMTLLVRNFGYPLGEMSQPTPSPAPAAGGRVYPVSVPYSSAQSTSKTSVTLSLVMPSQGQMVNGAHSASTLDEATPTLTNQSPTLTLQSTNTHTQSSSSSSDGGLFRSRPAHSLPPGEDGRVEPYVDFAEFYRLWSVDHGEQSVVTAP

[3] = target: T3, Endogenous TAB2 (Huh7 cells) (human (endogenous in Huh7)) (UniProt Q9NYJ8)
T3 sequence: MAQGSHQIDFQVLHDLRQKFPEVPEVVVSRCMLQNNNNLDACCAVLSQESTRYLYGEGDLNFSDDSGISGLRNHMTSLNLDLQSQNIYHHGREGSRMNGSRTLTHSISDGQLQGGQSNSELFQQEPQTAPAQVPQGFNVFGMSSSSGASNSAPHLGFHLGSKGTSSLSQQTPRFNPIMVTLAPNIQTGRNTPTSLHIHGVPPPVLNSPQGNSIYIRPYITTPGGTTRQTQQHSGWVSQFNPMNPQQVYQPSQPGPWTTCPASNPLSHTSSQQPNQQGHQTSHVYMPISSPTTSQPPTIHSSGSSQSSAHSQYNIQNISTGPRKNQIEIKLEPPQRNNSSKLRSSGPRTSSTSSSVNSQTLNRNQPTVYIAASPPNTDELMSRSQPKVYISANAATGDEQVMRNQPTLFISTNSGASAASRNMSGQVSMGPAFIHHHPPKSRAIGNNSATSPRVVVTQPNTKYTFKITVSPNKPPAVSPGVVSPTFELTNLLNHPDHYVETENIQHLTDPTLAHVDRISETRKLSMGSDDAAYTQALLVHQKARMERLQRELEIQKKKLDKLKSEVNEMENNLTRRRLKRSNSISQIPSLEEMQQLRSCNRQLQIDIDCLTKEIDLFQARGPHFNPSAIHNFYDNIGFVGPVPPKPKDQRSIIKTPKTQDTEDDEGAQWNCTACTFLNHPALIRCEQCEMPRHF

[4] = target: T4, Endogenous TAK1 (Huh7 cells) (human (endogenous in Huh7)) (UniProt O43318)
T4 sequence: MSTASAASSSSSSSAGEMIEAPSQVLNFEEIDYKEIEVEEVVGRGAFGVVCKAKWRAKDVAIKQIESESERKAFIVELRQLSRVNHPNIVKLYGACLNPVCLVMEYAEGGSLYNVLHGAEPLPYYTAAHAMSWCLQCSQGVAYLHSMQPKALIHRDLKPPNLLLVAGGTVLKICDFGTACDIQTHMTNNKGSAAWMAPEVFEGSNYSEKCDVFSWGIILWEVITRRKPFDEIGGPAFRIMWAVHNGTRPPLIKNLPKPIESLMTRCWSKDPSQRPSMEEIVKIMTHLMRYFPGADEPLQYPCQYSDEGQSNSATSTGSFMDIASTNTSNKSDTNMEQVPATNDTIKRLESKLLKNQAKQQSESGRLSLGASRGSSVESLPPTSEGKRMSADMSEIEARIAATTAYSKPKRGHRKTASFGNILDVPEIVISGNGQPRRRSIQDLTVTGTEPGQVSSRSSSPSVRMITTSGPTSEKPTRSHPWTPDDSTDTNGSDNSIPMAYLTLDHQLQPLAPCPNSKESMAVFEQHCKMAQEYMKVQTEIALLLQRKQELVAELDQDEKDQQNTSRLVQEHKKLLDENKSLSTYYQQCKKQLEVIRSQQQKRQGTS

- binding [1]: binds
- binding [2]: binds
- binding [3]: binds
- binding [4]: binds
Substance: Endogenous fibronectin (Huh7 cells) (from UniProt P02751 32-2477)
